Values of other authors as cited in patent US12324927B2, “Methods and systems for photodynamic therapy calculations” (THE TRUSTEES OF THE UNIVERSITY OF PENNSYLVANIA, priority 2018, dated 2025).
At least one compound was matched to its structure with a doubt left.

Details: cited from earlier work

C=Cc1c(C)c2cc3nc(cc4[nH]c(cc5nc(cc1[nH]2)C(C)=C5CCC(=O)O)c(CCC(=O)OC)c4C)[C@@]1(C)C3=CC=C(C(=O)OC)[C@H]1C(=O)OC [BPD, benzoporphyrin derivative monoacid ring A]
ξ, photochemical oxygen consumption rate: (55±15)×10^−3 cm^2 s^−1 mW^−1
